In PubChem BioAssay AID485298 (National Center for Advancing Translational Sciences (NCATS), 2010):
Screen size: about 320,000 compounds; about 740 (0.23%) were called active. Inconclusive results, whose numbers are uncertain, are shown with a selection of clear calls. Calls follow the shape of the dose curve; as a rule, active = well fitted activation curve with a large enough effect; inconclusive = small, poorly fitted or top-dose-only effect; inactive = no such curve, though single readings can be large or run the other way. Potencies of inconclusive entries are doubtful fits and often do not repeat.

assay: qHTS Assay for Small Molecule Inhibitors of Mitochondrial Division or Activators of Mitochondrial Fusion; also: nearly all actives have a fitted effect of over 45% in size; conditions: S. cerevisiae fusion-defective mutant growth rescue, CellTiterGlo 48 h; series mostly up to 46.1 µM
Summary of the method: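 Read-out: ATP-based luminescence (CellTiterGlo, 10 min ambient) reporting growth of fusion-defective ts yeast after 48 hours at 37C on glycerol/ethanol YPEG medium in the presence of compound.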
Potency is read from the fitted curve at half-maximal effect.

For `O=C(Nc1ccccc1N1CCOCC1)c1cc(Br)c(Br)s1`, which Potency is on record?
The Potency was inconclusive: 14.1 µM [activator, single point].

For `CC(C)c1ccc(NC(=O)CSc2nc3ncccc3[nH]2)cc1`, which Potency is on record?
Its Potency is inconclusive: 25.1 µM [activator, partial curve].

For `COc1ccc(OC)c(C(=O)c2coc3ccc(OC(C)=O)cc23)c1`, which Potency is on record?
The Potency was “inactive”.

For `CC1CCN(C2=C(NS(=O)(=O)c3ccccc3)C(=O)c3ccccc3C2=O)CC1`, which Potency is on record?
The Potency was inconclusive: 12.6 µM [activator, partial curve].

Which Potency does the source give for `COC(=O)c1c(NC(=O)COC(=O)[C@@H](NS(=O)(=O)c2ccc(C)cc2)C(C)C)sc2c1CCC2` here?
The Potency was inconclusive: 15.8 µM [activator, partial curve].

For `O=c1c2c3c(sc2ncn1/N=C/c1ccccc1)CCCC3`, which Potency is on record?
The Potency was “inactive”.

With `Cc1cc(C2=NNC(=Nc3ccccc3)SC2)c(C)n1C` as the compound, how does the Potency read?
The Potency was inconclusive: 17.8 µM [activator, single point].

Which Potency does the source give for `CCCCCCCCCCCCCCCCCCNC(=O)OCC(COP(=O)([O-])OCC[n+]1ccsc1)OC` (centres undefined) here?
The Potency was inconclusive: 1.03 µM [activator, partial curve].

With `Cc1occc1C(=O)n1nnc2ccccc21` as the compound, how does the Potency read?
Its Potency is “inactive”.

Which Potency does the source give for `CCOC(=O)c1c(NC(=O)C(=O)N/N=C/c2ccc(O)c(OC)c2)sc2c1CCCCC2` here?
The Potency was inconclusive: 22.4 µM [activator, single point].

Which Potency does the source give for `COCCCn1c(=N)c(C(=O)NCC2CCCO2)cc2c(=O)n3ccccc3nc21` (centres undefined) here?
Its Potency is inconclusive: 6.31 µM [activator, partial curve].

With `CCOC(=O)c1ccc(N2C(=O)CC(N3CCN(Cc4ccccc4)CC3)C2=O)cc1` (centres undefined) as the compound, how does the Potency read?
The Potency was “inactive”.

For `COc1ccc(/C=N/NC(=S)Nc2ccccc2)cc1COc1ccc(F)cc1F`, which Potency is on record?
Its Potency is “inactive”.

For `Cc1ccc(-c2nnc(OCc3cccnc3)c3ccccc23)cc1`, which Potency is on record?
The Potency was inconclusive: 12.6 µM [activator, partial curve].

Which Potency does the source give for `CC(C)CCn1c(NCCc2ccccc2)nc2c1c(=O)n(C)c(=O)n2C` here?
Its Potency is active: 17.8 µM.

For `C/C(=N\Nc1ccc(Cl)c(Cl)c1)c1ccc(-n2ccnc2)cc1`, which Potency is on record?
Its Potency is inconclusive: 35.5 µM [activator, single point].

For `Cc1ccc(C(C)C)cc1OCC(=O)NC1CCCCCCC1`, which Potency is on record?
The Potency was inconclusive: 31.6 µM [activator, single point].

Which Potency does the source give for `COc1cc(-c2c(NC(=O)c3ccco3)oc3ccccc3c2=O)cc(OC)c1OC` here?
Its Potency is inconclusive: 6.31 µM [activator, partial curve].

With `COc1ccc(NC(=O)CSc2nc3sc4c(c3c(=O)n2-c2ccc(OC)cc2)CCN(C)C4)cc1` as the compound, how does the Potency read?
Its Potency is “inactive”.

With `O=C1/C(=C/c2c[nH]c3ccccc23)CCC/C1=C\c1c[nH]c2ccccc12` as the compound, how does the Potency read?
The Potency was inconclusive: 12.6 µM [activator, partial curve].

Which Potency does the source give for `Cn1c(=O)c2c(nc(Oc3ccccc3Cl)n2C)n(C)c1=O` here?
The Potency was inconclusive: 20 µM [activator, partial curve].

Which Potency does the source give for `Cn1ccnc1C(O)c1ccccc1` (centres undefined) here?
The Potency was inconclusive: 35.5 µM [activator, single point].

For `COc1ccccc1NS(=O)(=O)c1cc(NC(=O)c2ccc(Cl)nc2)ccc1Cl`, which Potency is on record?
Its Potency is “inactive”.

With `CN(CC(=O)Nc1ccc(N2CCOCC2)cc1)Cc1c(O)ccc2ccccc12` as the compound, how does the Potency read?
The Potency was “inactive”.

For `CCn1c(SCC(=O)Nc2nc(-c3ccc(C)cc3)cs2)nnc1-c1ccccc1O`, which Potency is on record?
Its Potency is inconclusive: 22.4 µM [activator, single point].

With `Cc1ccc(S(=O)(=O)NCCC(=O)OCc2ccc([N+](=O)[O-])cc2)cc1C` as the compound, how does the Potency read?
The Potency was “inactive”.

With `O=C(NCCc1ccccc1)c1n[nH]c2ccccc12` as the compound, how does the Potency read?
The Potency was “inactive”.

With `COc1ccc(/C=N/Nc2nc(-c3ccc(Cl)cc3)cc(C(F)(F)F)n2)cc1OC` as the compound, how does the Potency read?
The Potency was inconclusive: 31.6 µM [activator, single point].

For `COc1cccc(-c2cc3nc(-c4ccccc4)cc(N4CCCC(O)C4)n3n2)c1` (centres undefined), which Potency is on record?
The Potency was inconclusive: 8.91 µM [activator, partial curve].

With `Cc1ccc(NC(=O)CCn2nc([N+](=O)[O-])cc2C)nc1` as the compound, how does the Potency read?
The Potency was inconclusive: 31.6 µM [activator, single point].

For `CCOC(=O)/C(C#N)=C/c1c(N2CCN(c3ccccc3)CC2)nc2c(C)cccn2c1=O`, which Potency is on record?
The Potency was inconclusive: 11.2 µM [activator, partial curve].

With `CCC(=O)N(Cc1ccco1)c1nc(C(=O)Nc2ccc(Cl)cc2)c(C)s1` as the compound, how does the Potency read?
The Potency was inconclusive: 35.5 µM [activator, single point].

For `COc1ccccc1N1CCN(C(=O)C(Sc2ccccc2)c2ccccc2)CC1` (centres undefined), which Potency is on record?
The Potency was inconclusive: 31.6 µM [activator, single point].

Which Potency does the source give for `CN1CCN(C(=O)c2ccc3c(=O)n(-c4ccc(F)cc4)c(=S)[nH]c3c2)CC1` here?
Its Potency is inconclusive: 17.8 µM [activator, partial curve].

Which Potency does the source give for `O=C(CCNC(=O)c1ccccc1Cl)Nc1ccc(Cl)c(C(F)(F)F)c1` here?
The Potency was active: 35.5 µM.

With `CCOc1ccccc1N1CCN(C(=O)c2ccc3[nH]c4c(c3c2)CCCC4)CC1` as the compound, how does the Potency read?
Its Potency is inconclusive: 17.8 µM [activator, single point].

For `COc1ccc(C(=O)CSc2nnc3ccc(-c4ccccn4)nn23)cc1`, which Potency is on record?
Its Potency is inconclusive: 11.2 µM [activator, single point].

For `O=C1CSC(=S)N1N1C(=O)c2cccc([N+](=O)[O-])c2C1=O`, which Potency is on record?
Its Potency is inconclusive: 28.2 µM [activator, partial curve].

With `COc1ccc(OC)c(NC(=O)Cc2coc3ccc(C)cc23)c1` as the compound, how does the Potency read?
The Potency was inconclusive: 22.4 µM [activator, single point].

For `Clc1ccc(-n2nnnc2-c2cnc(-c3ccncc3)nc2-c2cccs2)cc1`, which Potency is on record?
The Potency was active: 14.1 µM.

With `COc1ccc(C(=O)NC(=S)NCc2ccccc2)cc1` as the compound, how does the Potency read?
Its Potency is “inactive”.

With `CCc1ccc(NS(=O)(=O)c2cc3[nH]c(=O)c(=O)[nH]c3cc2C)cc1` as the compound, how does the Potency read?
Its Potency is inconclusive: 3.55 µM [activator, partial curve].

For `CCC1CCc2sc(C(=O)NC3CCN(Cc4ccccc4)CC3)cc2C1` (centres undefined), which Potency is on record?
The Potency was inconclusive: 35.5 µM [activator, single point].

With `CCn1c(SCC(=O)Nc2sccc2C(N)=O)nnc1C1CC1` as the compound, how does the Potency read?
Its Potency is “inactive”.

With `COc1ccc(N2CCN(C(=O)CN3C(=O)NC(C)(c4ccc5ccccc5c4)C3=O)CC2)cc1` (centres undefined) as the compound, how does the Potency read?
Its Potency is “inactive”.

Which Potency does the source give for `O=C(NC1CCCCC1)C(=O)c1c[nH]c2ccccc12` here?
The Potency was “inactive”.

Which Potency does the source give for `O=C(Nc1cccs1)Nc1cccnc1Cl` here?
Its Potency is inconclusive: 8.91 µM [activator, full curve].

With `COC(=O)CSc1nc(C2CC2)cc(C(F)(F)F)c1C#N` as the compound, how does the Potency read?
Its Potency is inconclusive: 12.6 µM [activator, partial curve].

For `CC1(C)CC(=O)C2=C(C1)OC1=C(C(=O)CC(C)(C)C1)C2(C)C`, which Potency is on record?
Its Potency is inconclusive: 3.55 µM [activator, single point].

For `COCc1c(C(=O)N2CCN(Cc3nc4ccccc4s3)CC2)oc2ccccc12`, which Potency is on record?
Its Potency is “inactive”.

With `CCOc1cc(CNCc2ccncc2)cc(Br)c1OCc1ccc(F)cc1` as the compound, how does the Potency read?
Its Potency is inconclusive: 10 µM [activator, partial curve].

With `CC(=O)c1ccc(-c2cccc(-c3nc4ccccn4c3NC3CCCCC3)c2)cc1` as the compound, how does the Potency read?
Its Potency is inconclusive: 11.2 µM [activator, partial curve].

Which Potency does the source give for `O=C(CSc1ncnc2scc(-c3ccccc3)c12)NCc1ccc2c(c1)OCO2` here?
The Potency was inconclusive: 12.6 µM [activator, partial curve].

With `Cc1ccc2[nH]c(=O)c3cc(C(=O)N(C)C4CCCCC4)sc3c2c1` as the compound, how does the Potency read?
Its Potency is inconclusive: 0.562 µM [activator, partial curve, poor fit].

Which Potency does the source give for `CC(=O)Nc1cccc(OCc2cnc(Cl)s2)c1` here?
The Potency was “inactive”.

Which Potency does the source give for `O=C(Nc1ccc(Cl)c(C(F)(F)F)c1)C(=O)N1CCCCC1` here?
Its Potency is “inactive”.

With `Cn1ccsc1=NC(=O)c1ccc(OC(F)(F)F)cc1` as the compound, how does the Potency read?
The Potency was inconclusive: 17.8 µM [activator, partial curve].

For `COc1ccc(CN2CCN(C(=O)C3CCN(S(=O)(=O)c4cccs4)CC3)CC2)c(OC)c1OC`, which Potency is on record?
The Potency was “inactive”.

With `Cc1ccc(NC(=O)c2cccs2)cc1S(=O)(=O)Nc1cccc(Cl)c1` as the compound, how does the Potency read?
The Potency was inconclusive: 31.6 µM [activator, single point].

With `Cc1nc2ccc(NC(=O)c3ccccc3)cc2s1` as the compound, how does the Potency read?
Its Potency is “inactive”.

With `C=CCN(C(=O)C1=NN(C2CCS(=O)(=O)C2)C(=O)CC1)c1nc(-c2ccc([N+](=O)[O-])cc2)cs1` (centres undefined) as the compound, how does the Potency read?
Its Potency is “inactive”.

Which Potency does the source give for `Cc1ccc(C(=O)NC(C)c2ccccc2)cc1Br` (centres undefined) here?
Its Potency is inconclusive: 12.6 µM [activator, partial curve].

Which Potency does the source give for `NC(=O)c1c(NC(=O)c2ccncc2)sc2c1CCCCCC2` here?
Its Potency is “inactive”.

For `COc1cc2c(cc1NC(=O)CN1C(=O)NC3(CCc4ccccc43)C1=O)oc1ccccc12` (centres undefined), which Potency is on record?
Its Potency is inconclusive: 25.1 µM [activator, single point].

With `O=C(Nc1ccccc1Cl)c1cc(S(=O)(=O)N2CCCC(C(=O)O)C2)ccc1F` (centres undefined) as the compound, how does the Potency read?
Its Potency is inconclusive: 35.5 µM [activator, partial curve, poor fit].

For `COc1ccc(N(CC(=O)N2c3ccccc3CC2C)S(=O)(=O)c2c(C)noc2C)cc1` (centres undefined), which Potency is on record?
Its Potency is inconclusive: 31.6 µM [activator, single point].

Which Potency does the source give for `COc1ccc(/C=C/c2nc3ccccc3n2Cc2ccccc2OC)cc1` here?
The Potency was inconclusive: 35.5 µM [activator, single point].

With `COc1ccc(OC)c(C2C=C(C34CC5CC(CC(C5)C3)C4)NC(=S)N2)c1` (centres undefined) as the compound, how does the Potency read?
The Potency was inconclusive: 22.4 µM [activator, single point].

Which Potency does the source give for `CC1(C)Oc2ccc3ccc(=O)oc3c2/C(=C/NC2CCCCC2)C1=O` here?
Its Potency is inconclusive: 12.6 µM [activator, partial curve].
